Test results: patent US9801844B2, “Methods and compositions for the treatment of cancer” (priority 2012, dated 2017)
Some results were stated once for a whole list of compounds, not compound by compound.

Target: Na+-K+-ATPase
Assay: Enzymatic assay of ATPase activity
Format: biochemical
Settings: purified enzyme, in vitro; read-out: 50% inhibition, IC50 value, of Na+-K+-ATPase activity
Procedure: The enzymatic assay of ATPase (adenosine 5′-triphosphatase, EC 3.6.1.3) followed the Sigma Prod. No. A-7510 protocol (Sigma-Aldrich, St. Louis, Mo., USA). Agents (0.05 ml) were pipetted with ATPase (0.05 ml, 0.5 units/ml, Sigma-Aldrich, St. Louis, Mo., USA), mixed and equilibrated for 5 min at 37° C. Taussky-Shorr reagent (10 ml of 10% ammonium molybdate in 10 N H2SO4) was pipetted to 70 ml H2O, 5 g of ferrous sulfate heptahydrate was added, and the volume was brought to 100 ml with H2O. Test supernatant (0.5 ml) and H2O (0.5 ml) were mixed and incubated at 25° C., and the absorbance read at A660 nm.
To determine whether the Na+-K+-ATPase is involved in the mechanism of action of CA and curcumin, the ability of these agents to inhibit the in vitro activity of the purified enzyme was assayed.

Structure (SMILES) | IC50 [nM]
CC(C)c1cc2c(c(O)c1O)[C@@]1(C(=O)O)CCCC(C)(C)[C@@H]1CC2 [carnosic acid] | < 100
CC(=O)O[C@H]1C(=O)[C@@]2(C)[C@H]([C@H](OC(=O)c3ccccc3)[C@]3(O)C[C@H](OC(=O)[C@H](O)[C@@H](NC(=O)c4ccccc4)c4ccccc4)C(C)=C1C3(C)C)[C@]1(OC(C)=O)CO[C@@H]1C[C@@H]2O [paclitaxel, reference compound] | < 100
